According to patent publication US20230048633A1:
These are yes or no findings as the source states them, for the method shown. Some entries that bind do so weakly or less than the wild type. Where a sequence is shown, tags or fusion partners need not be part of it.

Chains of the proteins cited; added tags and fusions are not shown. Residues count along the entry.
UniProt P04202, residues 279-390: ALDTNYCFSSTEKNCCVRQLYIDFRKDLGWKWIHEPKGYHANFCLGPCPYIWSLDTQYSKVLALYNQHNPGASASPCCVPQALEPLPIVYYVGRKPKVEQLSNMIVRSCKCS

Columns and labels:
[1] = molecular target: recombinant mouse TGFβ1 protein (mouse) (UniProt P04202); assay: ELISA, TGFβ1 coated, detection with anti mFc-HRP
[2] = molecular target: recombinant mouse TGFβ1 protein (mouse) (UniProt P04202); assay: ELISA, recombinant TGFβ1 coated, detection with anti mFc-HRP
[3] = molecular target: recombinant mouse TGFβ1 protein (mouse) (UniProt P04202); assay: BLI (Octet), mouse TGFβ1 linked to amine-reactive tips, chimeric proteins at 5 µg/ml
[4] = molecular target: TGFβ1 secreted by the tumor cell line EO771 (mouse) (UniProt P04202); assay: sequestration assay: EO771 cells treated 8 hours with 0.3, 1 and 3 µg/ml, free TGFβ1 in supernatant by ELISA
[5] = molecular target: recombinant mouse TGFβ1 protein (mouse) (UniProt P04202); assay: ELISA: plate coated with mTGFB1 (0.5 ug/ml, R&D 7666-MB), titrated protein captured, detected with α-mFc-HRP (1:10k, Jax 115-036-003)
[6] = molecular target: recombinant mouse TGFβ1 protein (mouse) (UniProt P04202); assay: Octet (TGFb-ARG2): TGFb (Biolegend 763104) coupled to ARG2 tips, 100nM (2.5 ug/ml) TGFb concentration shown; chimeric proteins at 5 ug/ml according to paragraph 289

Measured: binding

B1: mTGFBR2-Fc-CD30L chimeric protein (Fc fusion, mouse, not shown: a dimerising Fc or GST)
chain (part 1 of 2): IPPHVPKSVNSDVMASDNGGAVKLPQLCKFCDVRLSTCDNQKSCMSNCSITAICEKPHEVCVAVWRKNDKNITLETVCHDPKLTYHGFTLEDAASPKCVMKEKKRAGETFFMCACNMEECNDYIIFSEEYTTSSPDLLLVIIQ
chain (part 2 of 2): QKKDSTPNTTEKAPLKGGNCSEDLFCTLKSTPSKKSWAYLQVSKHLNNTKLSWNEDGTIHGLIYQDGNLIVQFPGLYFIVCQLQFLVQCSNHSVDLTLQLLINSKIKKQTLVTVCESGVQSKNIYQNLSQFLLHYLQVNSTISVRVDNFQYVDTNTFPLDNVLSVFLYSSSD
binds: [1] | [2] | [3] | [4] | [5] | [6]
